Some results were stated once for a whole list of compounds, not compound by compound.
Key:
Type in all cases: in vivo
[1] = system: tobacco budworm (Heliothis virescens); experiment: Test B: control of tobacco budworm, foliar spray on cotton; conditions: sprayed at 50 ppm, visually rated after 6 days
[2] = system: beet armyworm (Spodoptera exigua); experiment: Test C: control of beet armyworm, foliar spray on corn; conditions: sprayed at 50 ppm, visually rated after 6 days
[3] = system: fall armyworm (Spodoptera frugiperda); experiment: Test A: control of fall armyworm, foliar spray on corn; conditions: sprayed at 50 ppm, visually assessed after 6 days

SMILES	feeding damage (excellent levels of plant protection) [1] [%]	feeding damage (excellent levels of plant protection) [2] [%]	feeding damage (excellent levels of plant protection) [3] [%]
CCc1cc(C(=O)Nc2c(Cl)cccc2C(=O)NC(C)C)n(C(F)(F)F)n1 [Compound 8]	≤ 10	≤ 10	–
CC(C)NC(=O)c1cccc(Cl)c1NC(=O)c1cc(C(F)(F)F)nn1-c1ccccc1 [Compound 18]	≤ 10	≤ 10	≤ 10
CC(C)(C)NC(=O)c1cccc(Cl)c1NC(=O)c1cc(C(F)(F)F)nn1-c1ccccc1 [Compound 24]	≤ 10	≤ 10	≤ 10
CC(C)NC(=O)c1cccc(Br)c1NC(=O)c1cc(C(F)(F)F)nn1-c1ccccc1 [Compound 28]	≤ 10	≤ 10	≤ 10
Cc1cccc(C(=S)NC(C)C)c1NC(=O)c1cc(C(F)(F)F)nn1-c1ccccc1 [Compound 32]	≤ 10	≤ 10	≤ 10
Cc1cccc(C(=O)NC(C)C)c1NC(=O)c1cc(C(F)(F)F)nn1-c1ccccc1Cl [Compound 33]	≤ 10	≤ 10	≤ 10
CC(C)NC(=O)c1cccc(Cl)c1NC(=O)c1cc(C(F)(F)F)nn1-c1ccccc1Cl [Compound 34]	≤ 10	≤ 10	≤ 10
CC(C)NC(=O)c1cccc(Cl)c1NC(=O)c1cc(C(F)(F)F)nn1-c1ccccn1 [Compound 37]	≤ 10	≤ 10	≤ 10
Cc1cccnc1-n1nc(C(F)(F)F)cc1C(=O)Nc1c(C)cccc1C(=O)NC(C)C [Compound 39]	≤ 10	≤ 10	≤ 10
Cc1cccc(C(=O)NC(C)C)c1NC(=O)c1cc(C(F)(F)F)nn1-c1ccccc1F [Compound 46]	≤ 10	≤ 10	≤ 10
CC(C)NC(=O)c1cccc(Cl)c1NC(=O)c1cc(C(F)(F)F)nn1-c1ccccc1F [Compound 47]	≤ 10	≤ 10	≤ 10
Cc1cccc(C(=O)NC(C)C)c1NC(=O)c1cc(C(F)(F)F)nn1-c1ccc(F)cc1 [Compound 48]	≤ 10	≤ 10	≤ 10
CC(C)NC(=O)c1cccc(Cl)c1NC(=O)c1cc(C(F)(F)F)nn1C(C)C [Compound 53]	≤ 10	≤ 10	–
Cc1cccc(C(=O)NC(C)C)c1NC(=O)c1cc(C(F)(F)F)nn1-c1ccccc1C(F)(F)F [Compound 56]	≤ 10	≤ 10	≤ 10
CC(C)NC(=O)c1cccc(Cl)c1NC(=O)c1cc(C(F)(F)F)nn1-c1ccccc1C(F)(F)F [Compound 57]	≤ 10	≤ 10	≤ 10
Cc1cccc(C(=O)NC(C)C)c1NC(=O)c1cc(C(F)(F)F)nn1-c1ccccc1Br [Compound 58]	≤ 10	≤ 10	≤ 10
CC(C)NC(=O)c1cccc(Cl)c1NC(=O)c1cc(C(F)(F)F)nn1-c1ccccc1Br [Compound 59]	≤ 10	≤ 10	≤ 10
COc1cccc(C(=O)NC(C)C)c1NC(=O)c1cc(C(F)(F)F)nn1-c1ccccc1 [Compound 60]	≤ 10	≤ 10	–
Cc1cccc(C(=O)NC(C)C)c1NC(=O)c1cc(C(F)(F)F)nn1C(C)C [Compound 74]	≤ 10	≤ 10	–
Cc1ccccc1-n1nc(C(F)(F)F)cc1C(=O)Nc1c(C)cccc1C(=O)NC(C)C [Compound 75]	≤ 10	≤ 10	≤ 10
Cc1ccccc1-n1nc(C(F)(F)F)cc1C(=O)Nc1c(Cl)cccc1C(=O)NC(C)C [Compound 76]	≤ 10	≤ 10	≤ 10
CC(C)NC(=O)c1cccc(Br)c1NC(=O)c1cc(C(F)(F)F)nn1-c1ccccc1Cl [Compound 77]	≤ 10	≤ 10	≤ 10
Cc1cccc(C(=O)NC(C)(C)C)c1NC(=O)c1cc(C(F)(F)F)nn1-c1ccccc1Cl [Compound 78]	≤ 10	≤ 10	≤ 10
O=C(NCCCl)c1cccc(Cl)c1NC(=O)c1cc(C(F)(F)F)nn1-c1ccccc1 [Compound 80]	≤ 10	–	–

SMILES	feeding damage (excellent levels of plant protection) [1] [%]	feeding damage (excellent levels of plant protection) [2] [%]	feeding damage (excellent levels of plant protection) [3] [%]
COC(=O)C(C)NC(=O)c1cccc(Cl)c1NC(=O)c1cc(C(F)(F)F)nn1-c1ccccc1 (stereo not drawn) [Compound 82]	≤ 10	–	–
Cc1cccc(C(=O)NC(C)C)c1NC(=O)c1cc(C(F)(F)F)nn1CC(C)C [Compound 88]	≤ 10	≤ 10	–
CCN(CC)C(=O)c1cccc(Cl)c1NC(=O)c1cc(C(F)(F)F)nn1-c1ccccc1Cl [Compound 171]	≤ 10	–	–
Cc1cccc(C(=O)NC(C)C)c1NC(=O)c1cc(C(F)(F)F)nn1-c1ccccc1OC(F)(F)F [Compound 193]	≤ 10	–	≤ 10
CC(C)NC(=O)c1cccc(Cl)c1NC(=O)c1cc(C(F)(F)F)nn1-c1ccccc1OC(F)(F)F [Compound 194]	≤ 10	–	≤ 10
Cc1cccc(C(=O)N(C)C)c1NC(=O)c1cc(C(F)(F)F)nn1-c1ccnc2ccc(Cl)cc12 [Compound 216]	≤ 10	–	–
Cc1nccnc1-n1nc(C(F)(F)F)cc1C(=O)Nc1c(Cl)cccc1C(=O)NCC(C)C [Compound 222]	≤ 10	–	≤ 10
CCNC(=O)c1cccc(Cl)c1NC(=O)c1cc(C(F)(F)F)nn1-c1nccnc1C [Compound 223]	≤ 10	–	–
Cc1cccc(C(=O)NC(C)C)c1NC(=O)c1cc(C(F)(F)F)nn1-c1ccccn1 [Compound 239]	≤ 10	≤ 10	–
Cc1cccc(C(=O)NC(C)C)c1NC(=O)c1cc(C(F)(F)F)nn1-c1nccs1 [Compound 240]	≤ 10	≤ 10	–
COC(CN(C)C(=O)c1cccc(C)c1NC(=O)c1cc(C(F)(F)F)nn1-c1ccccc1Cl)OC [Compound 274]	≤ 10	≤ 10	–
Cc1cccc(C(=O)NC(C)C)c1NC(=O)c1cc(C#N)nn1-c1ccccc1Cl [Compound 285]	≤ 10	–	–
COc1nccnc1-n1nc(C(F)(F)F)cc1C(=O)Nc1c(C)cccc1C(=O)NC(C)C [Compound 286]	≤ 10	≤ 10	–
Cc1cccc(C(=O)NC(C)C)c1NC(=O)c1cc(C(F)(F)F)nn1-c1c(Cl)c(C)nn1C [Compound 330]	–	≤ 10	≤ 10
COc1cc(C(=O)Nc2c(Cl)cccc2C(=O)NC(C)C)n(-c2ccccc2Cl)n1 [Compound 365]	–	≤ 10	≤ 10
Cc1ccnc(-n2nc(C(F)(F)F)cc2C(=O)Nc2c(Cl)cccc2C(=O)NC(C)(C)C)n1 [Compound 381]	≤ 10	–	–
CCNC(=O)c1cccc(C)c1NC(=O)c1cc(C(F)(F)F)nn1-c1nccnc1CC [Compound 383]	≤ 10	–	–
O=C(NCC(F)(F)C(F)(F)F)c1cccc(Cl)c1NC(=O)c1cc(C(F)(F)F)nn1-c1ccccc1Cl [Compound 385]	≤ 10	≤ 10	–
Cc1ncnc(-n2nc(C(F)(F)F)cc2C(=O)Nc2c(Cl)cccc2C(=O)NC(C)(C)C)c1C [Compound 397]	≤ 10	–	–
Cc1cccc(C(=O)NC(C)C)c1NC(=O)c1cc(C(F)(F)F)nn1-c1ncnc(C)c1C [Compound 399]	≤ 10	–	–
CNC(=O)c1ccccc1-n1nc(C(F)(F)F)cc1C(=O)Nc1c(C)cccc1C(=O)NC(C)C [Compound 511]	≤ 10	–	–
Cc1cccc(C(=O)NC(C)C)c1N(C)C(=O)c1cc(Cl)nn1-c1ncccc1Cl [Compound 606]	–	≤ 10	≤ 10
Cc1cccc(C(=O)NC(C)C)c1N(C)C(=O)c1cc(C(F)(F)F)nn1-c1ncccc1Cl [Compound 607]	–	≤ 10	≤ 10

From patent US7696233B2, “Method for controlling particular insect pests by applying anthranilamide compounds” (E. I. du Pont de Nemours and Company, priority 2001, dated 2010)
